In patent publication US20030064071A1:
Results are given in words; binding and its absence hold for the method and conditions named. Some entries that bind do so weakly or less than the wild type. Tags and fused reporters may be left off the sequences shown.

The chains behind the UniProt entries cited, without tags or fusion partners. Where a name states a change or a piece, a line headed by the entry shows the natural chain unless it says otherwise.
UniProt Q9NNX6: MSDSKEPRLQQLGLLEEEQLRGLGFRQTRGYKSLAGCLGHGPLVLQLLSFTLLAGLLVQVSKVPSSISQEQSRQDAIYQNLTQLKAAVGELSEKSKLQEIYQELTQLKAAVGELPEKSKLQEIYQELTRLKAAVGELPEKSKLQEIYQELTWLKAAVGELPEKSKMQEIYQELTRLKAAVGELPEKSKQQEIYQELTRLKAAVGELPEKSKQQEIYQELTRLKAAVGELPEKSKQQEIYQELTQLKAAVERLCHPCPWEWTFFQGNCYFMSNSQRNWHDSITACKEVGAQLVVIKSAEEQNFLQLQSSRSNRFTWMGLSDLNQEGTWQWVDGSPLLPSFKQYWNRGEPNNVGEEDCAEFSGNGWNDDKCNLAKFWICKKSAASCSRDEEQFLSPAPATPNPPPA

Molecular target: T1, ICAM-3-Fc (UniProt P32942)
T1 sequence (looked up): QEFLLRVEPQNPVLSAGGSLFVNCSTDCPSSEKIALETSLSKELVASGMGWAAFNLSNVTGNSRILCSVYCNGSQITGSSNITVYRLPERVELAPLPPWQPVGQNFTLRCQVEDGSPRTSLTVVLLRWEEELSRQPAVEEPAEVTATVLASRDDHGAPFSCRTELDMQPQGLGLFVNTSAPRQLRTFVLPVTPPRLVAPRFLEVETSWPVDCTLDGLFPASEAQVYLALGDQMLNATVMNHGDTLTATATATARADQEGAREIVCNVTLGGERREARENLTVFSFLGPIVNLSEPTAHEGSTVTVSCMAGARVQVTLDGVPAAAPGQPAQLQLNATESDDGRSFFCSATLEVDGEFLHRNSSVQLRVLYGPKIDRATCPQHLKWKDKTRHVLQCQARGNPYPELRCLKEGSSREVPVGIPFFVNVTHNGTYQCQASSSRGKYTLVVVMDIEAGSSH
Experiment: screen for molecules on DC that bind ICAM-3

binding: binds
Substance: DC-SIGN (from UniProt Q9NNX6 1-404) (receptor)
